Experimental data: PubChem BioAssay AID1259308 (NCATS, 2017)
In all, the deposit lists about 59,000 reagents; this is an unselected part. About 1,510 of them (2.6%) count as active. 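Calls use total luciferase alone and ignore viability, so some active siRNAs may act by altering cell number.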 The numbers tell different reagents against one gene apart. Further read-outs or replicates are left out here. Reagent sequences are not shown.

- Aim: 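Candidate targets for better recombinant protein yield in mammalian cells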 (primary screen)
- Cells: human HEK293 embryonic kidney cells stably expressing firefly luciferase (HEK-CMV-Luc2-Hygro)
- Reagent: single siRNA against human genes, 0.8 pmol siRNA per well
- Timing: 72 h
- Measurement: 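Luciferase light (ONE-Glo) measured on one replicate plate set and viability (CellTiter-Glo) on the other, scaled to a negative control siRNA, with robust z-scores and luciferase per cell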
- Direction: total luciferase, z-score: higher = more reporter protein produced
- Active means: 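An siRNA counts as active if its total luciferase robust z-score exceeds 3; genes with two or more such siRNAs out of three were retested with fresh siRNAs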
- Calls: active = raised luciferase; inactive = no rise

| target gene | reagent | total luciferase, z-score | activity call |
| --- | --- | --- | --- |
| SCAPER | 1 | -0.436 | inactive |
| SCAPER | 2 | 1.27 | inactive |
| SCAPER | 3 | 0.286 | inactive |
| MMAB | 1 | 0.11 | inactive |
| MMAB | 2 | -1.97 | inactive |
| MMAB | 3 | -0.379 | inactive |
| CALM2 | 1 | -0.449 | inactive |
| CALM2 | 2 | 1.12 | inactive |
| CALM2 | 3 | 0.903 | inactive |
| NPHS2 | 1 | 0.215 | inactive |
| NPHS2 | 2 | 0.491 | inactive |
| NPHS2 | 3 | 0.218 | inactive |
| FAM193A | 1 | -0.728 | inactive |
| FAM193A | 2 | 0.688 | inactive |
| FAM193A | 3 | -0.812 | inactive |
| ZNF275 | 1 | 0.834 | inactive |
| ZNF275 | 2 | 0.249 | inactive |
| ZNF275 | 3 | 0.507 | inactive |
| MIR2052HG | 1 | 0.191 | inactive |
| MIR2052HG | 2 | 0.778 | inactive |
| MIR2052HG | 3 | 2.09 | inactive |
| STMN2 | 1 | -0.014 | inactive |
| STMN2 | 2 | 0.0495 | inactive |
| STMN2 | 3 | 2.29 | inactive |
| TSPYL2 | 1 | 0.483 | inactive |
| TSPYL2 | 2 | -0.0138 | inactive |
| TSPYL2 | 3 | 1.22 | inactive |
| METTL4 | 1 | 0.747 | inactive |
| METTL4 | 2 | 0.25 | inactive |
| METTL4 | 3 | -1.79 | inactive |
| NABP2 | 1 | -0.472 | inactive |
| NABP2 | 2 | 0.55 | inactive |
| NABP2 | 3 | -1.13 | inactive |
| BMP4 | 1 | 0.0706 | inactive |
| BMP4 | 2 | -0.0874 | inactive |
| BMP4 | 3 | 1.05 | inactive |
| EGLN2 | 1 | 1.05 | inactive |
| EGLN2 | 2 | -0.772 | inactive |
| EGLN2 | 3 | 1.72 | inactive |
| CES3 | 1 | 0.394 | inactive |
| CES3 | 2 | 0.325 | inactive |
| CES3 | 3 | 0.653 | inactive |
| NECTIN1 | 1 | -0.288 | inactive |
| NECTIN1 | 2 | 0.301 | inactive |
| NECTIN1 | 3 | -0.793 | inactive |
| MCM5 | 1 | 4.2 | active |
| MCM5 | 2 | 0.595 | inactive |
| MCM5 | 3 | 0.2 | inactive |
| CSHL1 | 1 | 0.132 | inactive |
| CSHL1 | 2 | -0.56 | inactive |
| CSHL1 | 3 | -0.322 | inactive |
| JPH3 | 1 | -0.163 | inactive |
| JPH3 | 2 | 1.46 | inactive |
| JPH3 | 3 | 0.417 | inactive |
| GBF1 | 1 | 0.0192 | inactive |
| GBF1 | 2 | -0.877 | inactive |
| GBF1 | 3 | 1.59 | inactive |
| UGT3A2 | 1 | 0.874 | inactive |
| UGT3A2 | 2 | -1.91 | inactive |
| UGT3A2 | 3 | -0.391 | inactive |
| GFY | 1 | 2.04 | inactive |
| GFY | 2 | 0.639 | inactive |
| GFY | 3 | -0.475 | inactive |
| ABCC12 | 1 | 0.6 | inactive |
| ABCC12 | 2 | 1.54 | inactive |
| ABCC12 | 3 | 0.0435 | inactive |
| SFRP1 | 1 | -0.5 | inactive |
| SFRP1 | 2 | -0.182 | inactive |
| SFRP1 | 3 | 0 | inactive |
| OAS1 | 1 | 3.55 | active |
| OAS1 | 2 | -0.975 | inactive |
| OAS1 | 3 | 2.18 | inactive |
| H2BC11 | 1 | -0.196 | inactive |
| H2BC11 | 2 | -1.97 | inactive |
| H2BC11 | 3 | 2.25 | inactive |
